Source: patent US20220010020A1 (Five Prime, published 2022)
No constants are given. Whether binding was seen depends on the method and setting. Some entries that bind do so weakly or less than the wild type. Values belong to the binder of their own block, whether it stands above or below them.

Biological target: protein A (UniProt P38507)
Experiment: Biacore

binding: binds
B1: anti-FGFR2-IIIb antibody (afucosylated, humanized IgG1 monoclonal antibody), control sample incubated without hydrogen peroxide (antibody, V domains shown)
VH: QVQLVQSGAEVKKPGSSVKVSCKASGYIFTTYNVHWVRQAPGQGLEWIGSIYPDNGDTSYNQNFKGRATITADKSTSTAYMELSSLRSEDTAVYYCARGDFAYWGQGTLVTVSS
VL: DIQMTQSPSSLSASVGDRVTITCKASQGVSNDVAWYQQKPGKAPKLLIYSASYRYTGVPSRFSGSGSGTDFTFTISSLQPEDIATYYCQQHSTTPYTFGQGTKLEIKR
notes: also called αFGFR2b; Sample 1

binding: binds
B2: anti-FGFR2-IIIb antibody incubated with 1.0% hydrogen peroxide overnight at room temperature (force oxidized) (antibody, human IgG1, kappa, V domains shown)
VH: B1 VH
VL: B1 VL
notes: Same antibody as m1 after peroxide treatment; also called +1.0% H2O2; 1.0% H2O2

binding: binds
B3: anti-FGFR2-IIIb antibody incubated with 0.01% hydrogen peroxide overnight at room temperature (force oxidized) (antibody, human IgG1, kappa, V domains shown)
VH: B1 VH
VL: B1 VL
notes: Same antibody as m1 after peroxide treatment; also called +0.01% H2O2; 0.01% H2O2

binding: binds
B4: anti-FGFR2-IIIb antibody incubated with 0.1% hydrogen peroxide overnight at room temperature (force oxidized) (antibody, human IgG1, kappa, V domains shown)
VH: B1 VH
VL: B1 VL
notes: Same antibody as m1 after peroxide treatment; also called +0.1% H2O2; 0.1% H2O2
